# Measured values published in the supplement of paper PMC8728848.
# Some of the results follow.
# How the values were obtained:
# Assay in all cases: glycan array binding signal (z-score within array); higher = stronger binding
# Conditions in all cases: glycan notation: IUPAC condensed, linker removed
# [1] = molecular target: Gal(b1-4)GlcNAc(b1-3)Gal(b1-3)GalNAc
# Outline: (§1)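 The binding signal is a Z-score computed within each array and averaged over linkers. Arrays of the same protein sequence at different concentrations or buffers were also averaged together. Data originate from 3228 arrays in the Consortium for Functional Glycomics database, kept only where the protein sequence was available.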
# [2] = molecular target: Gal(b1-4)GlcNAc(b1-3)Gal(b1-3)GlcNAc
# Outline: as §1
# [3] = molecular target: Gal(b1-4)GlcNAc(b1-3)Gal(b1-4)Glc
# Outline: as §1
# [4] = molecular target: Gal(b1-4)GlcNAc(b1-3)Gal(b1-4)GlcNAc
# Outline: as §1
# [5] = molecular target: Gal(b1-4)GlcNAc(b1-3)Gal(b1-4)GlcNAc(b1-2)Man(a1-3)[Gal(b1-4)GlcNAc(b1-3)Gal(b1-4)GlcNAc(b1-2)Man(a1-6)]Man(b1-4)GlcNAc(b1-4)GlcNAc
# Outline: as §1
# [6] = molecular target: Gal(b1-4)GlcNAc(b1-3)Gal(b1-4)GlcNAc(b1-2)Man(a1-3)[Gal(b1-4)GlcNAc(b1-3)Gal(b1-4)GlcNAc(b1-2)Man(a1-6)]Man(b1-4)GlcNAc(b1-4)[Fuc(a1-6)]GlcNAc
# Outline: as §1
# [7] = molecular target: Gal(b1-4)GlcNAc(b1-3)Gal(b1-4)GlcNAc(b1-2)[Gal(b1-4)GlcNAc(b1-3)Gal(b1-4)GlcNAc(b1-6)]Man(a1-6)[Gal(b1-4)GlcNAc(b1-3)Gal(b1-4)GlcNAc(b1-2)Man(a1-3)]Man(b1-4)GlcNAc(b1-4)GlcNAc
# Outline: as §1
# [8] = molecular target: Gal(b1-4)GlcNAc(b1-3)Gal(b1-4)GlcNAc(b1-2)[Gal(b1-4)GlcNAc(b1-3)Gal(b1-4)GlcNAc(b1-6)]Man(a1-6)[Gal(b1-4)GlcNAc(b1-3)Gal(b1-4)GlcNAc(b1-2)Man(a1-3)]Man(b1-4)GlcNAc(b1-4)[Fuc(a1-6)]GlcNAc
# Outline: as §1
# [9] = molecular target: Gal(b1-4)GlcNAc(b1-3)Gal(b1-4)GlcNAc(b1-3)Gal(b1-4)GlcNAc
# Outline: as §1
# [10] = molecular target: Gal(b1-4)GlcNAc(b1-3)Gal(b1-4)GlcNAc(b1-3)Gal(b1-4)GlcNAc(b1-2)Man(a1-3)[Gal(b1-4)GlcNAc(b1-3)Gal(b1-4)GlcNAc(b1-3)Gal(b1-4)GlcNAc(b1-2)Man(a1-6)]Man(b1-4)GlcNAc(b1-4)GlcNAc
# Outline: as §1
# [11] = molecular target: Gal(b1-4)GlcNAc(b1-3)Gal(b1-4)GlcNAc(b1-3)Gal(b1-4)GlcNAc(b1-2)Man(a1-3)[Gal(b1-4)GlcNAc(b1-3)Gal(b1-4)GlcNAc(b1-3)Gal(b1-4)GlcNAc(b1-2)Man(a1-6)]Man(b1-4)GlcNAc(b1-4)[Fuc(a1-6)]GlcNAc
# Outline: as §1
# [12] = molecular target: Gal(b1-4)GlcNAc(b1-3)Gal(b1-4)GlcNAc(b1-3)Gal(b1-4)GlcNAc(b1-2)[Gal(b1-4)GlcNAc(b1-3)Gal(b1-4)GlcNAc(b1-3)Gal(b1-4)GlcNAc(b1-6)]Man(a1-6)[Gal(b1-4)GlcNAc(b1-3)Gal(b1-4)GlcNAc(b1-3)Gal(b1-4)GlcNAc(b1-2)Man(a1-3)]Man(b1-4)GlcNAc(b1-4)[Fuc(a1-6)]GlcNAc
# Outline: as §1
# [13] = molecular target: Gal(b1-4)GlcNAc(b1-3)Gal(b1-4)GlcNAc(b1-3)Gal(b1-4)GlcNAc(b1-3)Gal(b1-4)GlcNAc(b1-2)Man(a1-3)[Gal(b1-4)GlcNAc(b1-3)Gal(b1-4)GlcNAc(b1-3)Gal(b1-4)GlcNAc(b1-3)Gal(b1-4)GlcNAc(b1-2)Man(a1-6)]Man(b1-4)GlcNAc(b1-4)GlcNAc
# Outline: as §1
# [14] = molecular target: Gal(b1-4)GlcNAc(b1-3)Gal(b1-4)GlcNAc(b1-3)Gal(b1-4)GlcNAc(b1-3)Gal(b1-4)GlcNAc(b1-2)Man(a1-3)[Gal(b1-4)GlcNAc(b1-3)Gal(b1-4)GlcNAc(b1-3)Gal(b1-4)GlcNAc(b1-3)Gal(b1-4)GlcNAc(b1-2)Man(a1-6)]Man(b1-4)GlcNAc(b1-4)[Fuc(a1-6)]GlcNAc
# Outline: as §1
# [15] = molecular target: Gal(b1-4)GlcNAc(b1-3)Gal(b1-4)GlcNAc(b1-3)Gal(b1-4)GlcNAc(b1-3)Gal(b1-4)GlcNAc(b1-2)[Gal(b1-4)GlcNAc(b1-3)Gal(b1-4)GlcNAc(b1-3)Gal(b1-4)GlcNAc(b1-3)Gal(b1-4)GlcNAc(b1-6)]Man(a1-6)[Gal(b1-4)GlcNAc(b1-3)Gal(b1-4)GlcNAc(b1-3)Gal(b1-4)GlcNAc(b1-3)Gal(b1-4)GlcNAc(b1-2)Man(a1-3)]Man(b1-4)GlcNAc(b1-4)[Fuc(a1-6)]GlcNAc
# Outline: as §1
# [16] = molecular target: Gal(b1-4)GlcNAc(b1-3)Gal(b1-4)GlcNAc(b1-3)Gal(b1-4)GlcNAc(b1-3)Gal(b1-4)GlcNAc(b1-3)Gal(b1-4)GlcNAc(b1-2)Man(a1-3)[Gal(b1-4)GlcNAc(b1-3)Gal(b1-4)GlcNAc(b1-3)Gal(b1-4)GlcNAc(b1-3)Gal(b1-4)GlcNAc(b1-3)Gal(b1-4)GlcNAc(b1-2)Man(a1-6)]Man(b1-4)GlcNAc(b1-4)GlcNAc
# Outline: as §1
# [17] = molecular target: Gal(b1-4)GlcNAc(b1-3)Gal(b1-4)GlcNAc(b1-3)Gal(b1-4)GlcNAc(b1-3)Gal(b1-4)GlcNAc(b1-3)Gal(b1-4)GlcNAc(b1-2)Man(a1-3)[Gal(b1-4)GlcNAc(b1-3)Gal(b1-4)GlcNAc(b1-3)Gal(b1-4)GlcNAc(b1-3)Gal(b1-4)GlcNAc(b1-3)Gal(b1-4)GlcNAc(b1-2)Man(a1-6)]Man(b1-4)GlcNAc(b1-4)[Fuc(a1-6)]GlcNAc
# Outline: as §1
# [18] = molecular target: Gal(b1-4)GlcNAc(b1-3)Gal(b1-4)GlcNAc(b1-3)Gal(b1-4)GlcNAc(b1-3)Gal(b1-4)GlcNAc(b1-3)Gal(b1-4)GlcNAc(b1-2)[Gal(b1-4)GlcNAc(b1-3)Gal(b1-4)GlcNAc(b1-3)Gal(b1-4)GlcNAc(b1-3)Gal(b1-4)GlcNAc(b1-3)Gal(b1-4)GlcNAc(b1-6)]Man(a1-6)[Gal(b1-4)GlcNAc(b1-3)Gal(b1-4)GlcNAc(b1-3)Gal(b1-4)GlcNAc(b1-3)Gal(b1-4)GlcNAc(b1-3)Gal(b1-4)GlcNAc(b1-2)Man(a1-3)]Man(b1-4)GlcNAc(b1-4)[Fuc(a1-6)]GlcNAc
# Outline: as §1
# [19] = molecular target: Gal(b1-4)GlcNAc(b1-3)Gal(b1-4)GlcNAc(b1-3)Gal(b1-4)GlcNAc(b1-3)Gal(b1-4)GlcNAc(b1-3)Gal(b1-4)GlcNAc(b1-3)Gal(b1-4)GlcNAc(b1-2)Man(a1-3)[Gal(b1-4)GlcNAc(b1-3)Gal(b1-4)GlcNAc(b1-3)Gal(b1-4)GlcNAc(b1-3)Gal(b1-4)GlcNAc(b1-3)Gal(b1-4)GlcNAc(b1-3)Gal(b1-4)GlcNAc(b1-2)Man(a1-6)]Man(b1-4)GlcNAc(b1-4)GlcNAc
# Outline: as §1
# [20] = molecular target: Gal(b1-4)GlcNAc(b1-3)Gal(b1-4)GlcNAc(b1-3)GalNAc
# Outline: as §1
# [21] = molecular target: Gal(b1-4)GlcNAc(b1-3)Gal(b1-4)GlcNAc(b1-3)[Gal(b1-4)GlcNAc(b1-3)Gal(b1-4)GlcNAc(b1-6)]GalNAc
# Outline: as §1
# [22] = molecular target: Gal(b1-4)GlcNAc(b1-3)Gal(b1-4)GlcNAc(b1-6)[Gal(b1-3)]GalNAc
# Outline: as §1
# [23] = molecular target: Gal(b1-4)GlcNAc(b1-3)Gal(b1-4)[Fuc(a1-3)]GlcNAc(b1-3)Gal(b1-4)[Fuc(a1-3)]GlcNAc
# Outline: as §1
# [24] = molecular target: Gal(b1-4)GlcNAc(b1-3)GalNAc
# Outline: as §1
# [25] = molecular target: Gal(b1-4)GlcNAc(b1-3)[Fuc(a1-3)GlcNAc(b1-6)]Gal(b1-4)Glc
# Outline: as §1
# [26] = molecular target: Gal(b1-4)GlcNAc(b1-3)[Gal(b1-4)GlcNAc(b1-6)]Gal(b1-4)GlcNAc
# Outline: as §1
# [27] = molecular target: Gal(b1-4)GlcNAc(b1-3)[Gal(b1-4)GlcNAc(b1-6)]GalNAc
# Outline: as §1
# [28] = molecular target: Gal(b1-4)GlcNAc(b1-3)[GlcNAc(b1-6)]Gal(b1-4)GlcNAc
# Outline: as §1
# [29] = molecular target: Gal(b1-4)GlcNAc(b1-6)Gal(b1-4)GlcNAc
# Outline: as §1
# [30] = molecular target: Gal(b1-4)GlcNAc(b1-6)Gal(b1-4)GlcNAc(b1-6)GalNAc
# Outline: as §1
binder,measurement,setting,value
"Endo180d1-D4 (Homo sapiens), Q9UBG0 (protein) MGPGRPAPAPWPRHLLRCVLLLGCLHLGRPGAPGDAALPEPNVFLIFSHGLQGCLEAQGGQVRVTPACNTSLPAQRWKWVSRNRLFNLGTMQCLGTGWPGTNTTASLGMYECDREALNLRWHCRTLGDQLSLLLGARTSNISKPGTLERGDQTRSGQWRIYGSEEDLCALPYHEVYTIQGNSHGKPCTIPFKYDNQWFHGCTSTGREDGHLWCATTQDYGKDERWGFCPIKSNDCETFWDKDQLTDSCYQFNFQSTLSWREAWASCEQQGADLLSITEIHEQTYINGLLTGYSSTLWIGLNDLDTSGGWQWSDNSPLKYLNWESDQPDNPSEENCGVIRTESSGGWQNRDCSIALPYVCKKKPNATAEPTPPDRWANVKVECEPSWQPFQGHCYRLQAEKRSWQESKKACLRGGGDLVSIHSMAELEFITKQIKQEVEELWIGLNDLKLQMNFEWSDGSLVSFTHWHPFEPNNFRDSLEDCVTIWGPEGRWNDSPCNQSLPSICKKAGQLSQGAAEEDHGCRKGWTWHSPSCYWLGEDQVTYSEARRLCTDHGSQLVTITNRFEQAFVSSLIYNWEGEYFWTALQDLNSTGSFFWLSGDEVMYTHWNRDQPGYSRGGCVALATGSAMGLWEVKNCTSFRARYICRQSLGTPVTPELPGPDPTPSLTGSCPQGWASDTKLRYCYKVFSSERLQDKKSWVQAQGACQELGAQLLSLASYEEEHFVANMLNKIFGESEPEIHEQHWFWIGLNRRDPRGGQSWRWSDGVGFSYHNFDRSRHDDDDIRGCAVLDLASLQWVAMQCDTQLDWICKIPRGTDVREPDDSPQGRREWLRFQEAEYKFFEHHSTWAQAQRICTWFQAELTSVHSQAELDFLSHNLQKFSRAQEQHWWIGLHTSESDGRFRWTDGSIINFISWAPGKPRPVGKDKKCVYMTASREDWGDQRCLTALPYICKRSNVTKETQPPDLPTTALGGCPSDWIQFLNKCFQVQGQEPQSRVKWSEAQFSCEQQEAQLVTITNPLEQAFITASLPNVTFDLWIGLHASQRDFQWVEQEPLMYANWAPGEPSGPSPAPSGNKPTSCAVVLHSPSAHFTGRWDDRSCTEETHGFICQKGTDPSLSPSPAALPPAPGTELSYLNGTFRLLQKPLRWHDALLLCESHNASLAYVPDPYTQAFLTQAARGLRTPLWIGLAGEEGSRRYSWVSEEPLNYVGWQDGEPQQPGGCTYVDVDGAWRTTSCDTKLQGAVCGVSSGPPPPRRISYHGSCPQGLADSAWIPFREHCYSFHMELLLGHKEARQRCQRAGGAVLSILDEMENVFVWEHLQSYEGQSRGAWLGMNFNPKGGTLVWQDNTAVNYSNWGPPGLGPSMLSHNSCYWIQSNSGLWRPGACTNITMGVVCKLPRAEQSSFSPSALPENPAALVVVLMAVLLLLALLTAALILYRRRQSIERGAFEGARYSRSSSSPTEATEKNILVSDMEMNEQQE",glycan array binding signal (z-score),[1],-1.55
same,glycan array binding signal (z-score),[2],0.375
same,glycan array binding signal (z-score),[3],-0.161
same,glycan array binding signal (z-score),[4],-0.342
same,glycan array binding signal (z-score),[5],-1.02
same,glycan array binding signal (z-score),[6],0.72
same,glycan array binding signal (z-score),[7],0.373
same,glycan array binding signal (z-score),[8],0.287
same,glycan array binding signal (z-score),[9],-0.61
same,glycan array binding signal (z-score),[10],-0.083
same,glycan array binding signal (z-score),[11],-0.289
same,glycan array binding signal (z-score),[12],-0.373
same,glycan array binding signal (z-score),[13],-0.336
same,glycan array binding signal (z-score),[14],1.19
same,glycan array binding signal (z-score),[15],0.971
same,glycan array binding signal (z-score),[16],-0.136
same,glycan array binding signal (z-score),[17],1.04
same,glycan array binding signal (z-score),[18],0.63
same,glycan array binding signal (z-score),[19],1.63
same,glycan array binding signal (z-score),[20],0.585
same,glycan array binding signal (z-score),[21],0.056
same,glycan array binding signal (z-score),[22],-0.22
same,glycan array binding signal (z-score),[23],-0.047
same,glycan array binding signal (z-score),[24],0.141
same,glycan array binding signal (z-score),[25],-0.533
same,glycan array binding signal (z-score),[26],-0.503
same,glycan array binding signal (z-score),[27],-0.215
same,glycan array binding signal (z-score),[28],-0.226
same,glycan array binding signal (z-score),[29],-1.39
same,glycan array binding signal (z-score),[30],-0.163
